According to patent publication US20210269772:
Where cells or extracts were used, other partners may take part. For some assays here: A negative result means that nothing was seen under these conditions. For some assays here: The comparison behind a weaker result is the experiment's own reference, which may not be listed here. For some assays here: The exact form of at least one protein or probe is not confirmed.

Protein sequences, listed by entry. Tags and fused reporters are not part of them. Residues count along the entry.
UniProt P01732, 22-235: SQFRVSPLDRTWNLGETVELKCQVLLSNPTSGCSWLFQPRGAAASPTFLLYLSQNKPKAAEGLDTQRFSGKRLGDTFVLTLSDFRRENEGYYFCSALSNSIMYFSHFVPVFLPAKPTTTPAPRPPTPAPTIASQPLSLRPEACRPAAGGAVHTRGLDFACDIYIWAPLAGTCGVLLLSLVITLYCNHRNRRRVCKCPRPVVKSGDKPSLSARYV
UniProt F7DXK3, entry or part of it: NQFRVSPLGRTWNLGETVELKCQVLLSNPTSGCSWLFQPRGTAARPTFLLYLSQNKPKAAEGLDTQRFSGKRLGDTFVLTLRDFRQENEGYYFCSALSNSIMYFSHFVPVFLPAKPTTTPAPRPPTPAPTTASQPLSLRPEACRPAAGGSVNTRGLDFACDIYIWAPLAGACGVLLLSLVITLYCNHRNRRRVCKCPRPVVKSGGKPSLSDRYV
UniProt P01731, 28-247: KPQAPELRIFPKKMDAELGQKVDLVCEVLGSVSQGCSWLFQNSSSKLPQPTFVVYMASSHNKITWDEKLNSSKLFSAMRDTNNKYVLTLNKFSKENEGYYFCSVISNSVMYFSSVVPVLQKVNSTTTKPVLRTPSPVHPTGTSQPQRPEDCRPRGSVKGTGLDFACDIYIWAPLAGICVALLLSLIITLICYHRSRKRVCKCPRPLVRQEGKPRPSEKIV

Columns and labels:
[1] = target: CD8 alpha (CD8a) on CD8+ T cells / PBMC (Homo sapiens) (UniProt P01732); test: flow cytometry; details: protein on the cell surface, single-stranded DNA
[2] = target: CD8 alpha (CD8a) transiently expressed on CD8- Jurkat cells (Homo sapiens) (UniProt P01732); test: flow cytometry; details: 10 nM; binding specific to GFP+ cells; protein on the cell surface; protein details: CD8a-hnRNP-M-EGFP plasmid, Addgene 86054; label: 5'-FAM (cells), biotin (BLI); single-stranded DNA
[3] = target: CD8 on CD3+CD8+ rhesus macaque PBMC (Macaca mulatta) (UniProt F7DXK3); test: flow cytometry; details: 50 nM; protein on the cell surface; label: 5'-FAM (cells), biotin (BLI); single-stranded DNA
[4] = target: CD8 on CD3+CD8+ murine spleen T cells (Mus musculus) (UniProt P01731); test: flow cytometry; details: 50 nM; protein on the cell surface; label: 5'-FAM (cells), biotin (BLI); single-stranded DNA
[5] = target: CD8 alpha (CD8a) on CD8+ T cells / PBMC (Homo sapiens) (UniProt P01732); test: competition with a labelled probe; details: 10 nM aptamer outcompeted by anti-CD8a RPA-T8 but not by anti-CD3; protein on the cell surface; label: 5'-FAM (cells), biotin (BLI); single-stranded DNA

Sequence | binding result ([1]; iSp18 spacer, 5 nM on CD8+ T cells, released 90% by 100-fold complementary reversal agent SEQ 7, 10 min RT, label: 5'-biotin, variant of A3) | binding result ([1]; 3' iSp18 spacer, low binding in its published buffer conditions, compared with A3 / A3t, label: 3'-biotin) | binding result [2] | binding result [3] | binding result [4] | binding result [5]
CCAGAGTGACGCAGCAACAGAGGTGTAGAAGTACACGTGAACAAGCTTGAAATTGTCTCTGACAGAGGTGGACACGGTGGCTTTTAGT [A3t] | binds |  |  |  |  | 
CTACAGCTTGCTATGCTCCCCTTGGGGTA [CD8Ap17s] |  | binds more weakly |  |  |  | 
ATCCAGAGTGACGCAGCAGCTCGATCGTATAGCCGTGACGCAGCTTGAAATGGGATCGCGTCCACAGTTTTGGACACGGTGGCTTAGT [A8] |  |  | binds | binds | no binding | binds
ATCCAGAGTGACGCAGCACGCAGCACCCGTGGTAGTGTATCAGGGAGACACTACGTGATGCAGCTTGAAATGGACACGGTGGCTTAGT [A1] |  |  | binds | binds | no binding | binds
ATCCAGAGTGACGCAGCAACAGAGGTGTAGAAGTACACGTGAACAAGCTTGAAATTGTCTCTGACAGAGGTGGACACGGTGGCTTAGT [A3] |  |  | binds | binds | no binding | binds
